Values of other authors in patent publication US20240391912A1, “MORPHIC FORMS OF CFT7455 AND METHODS OF MANUFACTURE THEREOF” (C4 THERAPEUTICS, INC., priority 2022, published 2024).
Some entries share one result that the patent states for a list of compounds.

Test system: multiclass refractory myeloma
Conditions: cited from earlier work

SMILES: O=C(/C=C\n1cnc(-c2cc(C(F)(F)F)cc(C(F)(F)F)c2)n1)NNc1cnccn1 [selinexor]
- progression free survival intervals: 3.7-4.9 months
- response rates: 26-31%
